PubChem BioAssay AID1159597 – NIAID, 2016

Aim: 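Role of canonical TLR signalling genes in the human macrophage LPS response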
Cell system: human THP-1 B5 reporter clone (monocytic leukaemia line), PMA-differentiated to macrophage-like cells
Reagent: single siRNA against human genes
Timing: LPS for 4 h before read-out; assayed 48 to 72 h after siRNA transfection
Challenge: LPS (Salmonella minnesota R595) for 4 h; concentration not given
Detection: 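TNF promoter dual luciferase ratio after 4 h LPS, given as a per-plate robust z-score, mean of replicates per siRNA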
Reading the numbers: TNF reporter z-score: higher = stronger TNF promoter activity after LPS
Active means: In these data the active calls have TNF reporter z-score, replicate mean at about -1.5 or lower, or at about 1.53 or higher
Calls: active = clear shift in reporter, either direction; inactive = little shift in reporter
The deposit covers 756 reagents; this is a random part of them. 140 of them (19%) were called active. 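Calls mark clear shifts in either direction, lowered or raised; calls are per siRNA, gene-level medians over six siRNAs not deposited.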 The numbers tell different reagents against one gene apart. Reagent sequences are not shown. Not given: the amount of reagent.

gene knocked down | reagent no. | TNF reporter z-score, replicate mean | outcome
PIK3R1 | 1 | 0.573 | inactive
PIK3R1 | 2 | -0.067 | inactive
PIK3R1 | 3 | 0.778 | inactive
PIK3R1 | 4 | -0.611 | inactive
PIK3R1 | 5 | -1.9 | active
PIK3R1 | 6 | 1.21 | inactive
CD180 | 1 | -0.28 | inactive
CD180 | 2 | -0.393 | inactive
CD180 | 3 | -0.903 | inactive
CD180 | 4 | -0.957 | inactive
CD180 | 5 | 0.767 | inactive
CD180 | 6 | 0.315 | inactive
MAP2K6 | 1 | -0.0597 | inactive
MAP2K6 | 2 | 0.261 | inactive
MAP2K6 | 3 | -0.626 | inactive
MAP2K6 | 4 | -0.144 | inactive
MAP2K6 | 5 | 0.0915 | inactive
MAP2K6 | 6 | 0.0901 | inactive
RIPK1 | 1 | 0.384 | inactive
RIPK1 | 2 | 1.2 | inactive
RIPK1 | 3 | 0.558 | inactive
RIPK1 | 4 | -1.17 | inactive
RIPK1 | 5 | -0.501 | inactive
RIPK1 | 6 | -1.56 | active
UBE2N | 1 | 0.447 | inactive
UBE2N | 2 | -1.49 | inactive
UBE2N | 3 | 1.28 | inactive
UBE2N | 4 | -0.783 | inactive
UBE2N | 5 | -0.159 | inactive
UBE2N | 6 | 1 | inactive
CYLD | 1 | -2.81 | active
CYLD | 2 | -4.25 | active
CYLD | 3 | -0.363 | inactive
CYLD | 4 | -0.998 | inactive
CYLD | 5 | -2.24 | active
CYLD | 6 | -1.73 | active
MAPK10 | 1 | 0.123 | inactive
MAPK10 | 2 | -0.904 | inactive
MAPK10 | 3 | -0.133 | inactive
MAPK10 | 4 | -0.438 | inactive
MAPK10 | 5 | 0.424 | inactive
MAPK10 | 6 | -0.228 | inactive
RELB | 1 | -1.1 | inactive
RELB | 2 | 0.144 | inactive
RELB | 3 | 0.215 | inactive
RELB | 4 | -1.18 | inactive
RELB | 5 | -0.374 | inactive
RELB | 6 | -0.568 | inactive
PIK3CD | 1 | -1.22 | inactive
PIK3CD | 2 | -0.0561 | inactive
PIK3CD | 3 | -0.216 | inactive
PIK3CD | 4 | -2.73 | active
PIK3CD | 5 | 0.0169 | inactive
PIK3CD | 6 | -1.71 | active
ARF6 | 1 | -0.585 | inactive
ARF6 | 2 | 0.0317 | inactive
ARF6 | 3 | 0.372 | inactive
ARF6 | 4 | -0.916 | inactive
ARF6 | 5 | 1.23 | inactive
ARF6 | 6 | 0.685 | inactive
MAPK11 | 1 | -0.781 | inactive
MAPK11 | 2 | 0.221 | inactive
MAPK11 | 3 | -0.258 | inactive
MAPK11 | 4 | -0.42 | inactive
MAPK11 | 5 | -1.01 | inactive
MAPK11 | 6 | -0.125 | inactive

Taken from above:
Under “outcome”, MAPK10 #1 shows inactive
UBE2N #3, TNF reporter z-score, replicate mean = 1.28
RELB #2, outcome: inactive
MAPK10 #3, outcome: inactive
For “outcome”, RIPK1 #4 reads inactive
RIPK1 #3, outcome = inactive

More reagents:
gene knocked down | reagent no. | TNF reporter z-score, replicate mean | outcome
DUSP1 | 1 | 0.422 | inactive
DUSP1 | 2 | 0.682 | inactive
DUSP1 | 3 | 1.53 | active
DUSP1 | 4 | 0.816 | inactive
DUSP1 | 5 | 0.207 | inactive
DUSP1 | 6 | 0.466 | inactive
NFKBIB | 1 | -1.04 | inactive
NFKBIB | 2 | -0.31 | inactive
NFKBIB | 3 | 0.0338 | inactive
NFKBIB | 4 | -1.66 | active
NFKBIB | 5 | -0.327 | inactive
NFKBIB | 6 | -0.607 | inactive
MAP2K3 | 1 | 0.451 | inactive
MAP2K3 | 2 | -0.853 | inactive
MAP2K3 | 3 | -1.39 | inactive
MAP2K3 | 4 | -1.28 | inactive
MAP2K3 | 5 | -0.444 | inactive
MAP2K3 | 6 | -3.33 | active
IRAK3 | 1 | 0.085 | inactive
IRAK3 | 2 | -0.753 | inactive
IRAK3 | 3 | -0.0216 | inactive
IRAK3 | 4 | 0.654 | inactive
IRAK3 | 5 | -0.543 | inactive
IRAK3 | 6 | -0.249 | inactive
PIK3R3 | 1 | -0.805 | inactive
PIK3R3 | 2 | 0.324 | inactive
PIK3R3 | 3 | 0.155 | inactive
PIK3R3 | 4 | -1.49 | inactive
PIK3R3 | 5 | 0.217 | inactive
PIK3R3 | 6 | -2.54 | active
EGR2 | 1 | -1.25 | inactive
EGR2 | 2 | -1.06 | inactive
EGR2 | 3 | 0.0466 | inactive
EGR2 | 4 | -1.31 | inactive
EGR2 | 5 | -1.16 | inactive
EGR2 | 6 | -1.5 | active
ITGAM | 1 | -1.22 | inactive
ITGAM | 2 | -0.927 | inactive
ITGAM | 3 | 0.0983 | inactive
ITGAM | 4 | -0.758 | inactive
ITGAM | 5 | 0.316 | inactive
ITGAM | 6 | 0.093 | inactive
DAB2IP | 1 | -1.03 | inactive
DAB2IP | 2 | 0.131 | inactive
DAB2IP | 3 | 1.34 | inactive
DAB2IP | 4 | -2.49 | active
DAB2IP | 5 | -0.463 | inactive
DAB2IP | 6 | -2.63 | active
MAP3K8 | 1 | -0.947 | inactive
MAP3K8 | 2 | -1.95 | active
MAP3K8 | 3 | -0.487 | inactive
MAP3K8 | 4 | -1.27 | inactive
MAP3K8 | 5 | -2.39 | active
MAP3K8 | 6 | -0.934 | inactive
PIK3CB | 1 | -0.753 | inactive
PIK3CB | 2 | -0.262 | inactive
PIK3CB | 3 | -1.04 | inactive
PIK3CB | 4 | 0.463 | inactive
PIK3CB | 5 | 0.834 | inactive
PIK3CB | 6 | 0.0938 | inactive
MAP3K1 | 1 | -1.26 | inactive
MAP3K1 | 2 | -1.14 | inactive
MAP3K1 | 3 | -0.292 | inactive
MAP3K1 | 4 | -1.46 | inactive
MAP3K1 | 5 | -0.685 | inactive
MAP3K1 | 6 | -0.193 | inactive
MAPK14 | 1 | -1.92 | active
MAPK14 | 2 | -0.779 | inactive
MAPK14 | 3 | -0.832 | inactive
MAPK14 | 4 | -1.7 | active
MAPK14 | 5 | -0.243 | inactive
MAPK14 | 6 | -0.512 | inactive
IL12A | 1 | 0.179 | inactive
IL12A | 2 | 0.104 | inactive
IL12A | 3 | -3.37 | active
IL12A | 4 | -0.376 | inactive
IL12A | 5 | -1.33 | inactive
IL12A | 6 | -0.36 | inactive
